About 5,400 (1.8%) of roughly 300,000 compounds were called active. Inconclusive means that the source gave no clear call. Such entries were picked first, then a sample of the others. Calls come from the whole dose curve; tested in HEK293 cells. A potency beside an inconclusive call is a rough fit, not a confirmed value.
assay: qHTS for inhibitors of binding or entry into cells for Marburg Virus; settings: Marburg virus pseudotyped entry inhibition, cell reporter; activity change, negative = inhibition: at 37.8 µM (top of the series) unless noted
% is set by controls: 0 for no effect and ±100 for the full control effect; potency is the fitted concentration of half-maximal effect.

Row | Structure (SMILES) | Potency | activity change, negative = inhibition
1 | CCN(CC)C(=O)/C(=C\c1ccc2c(c1)OCO2)NC(=O)c1ccc(Br)cc1 | inconclusive: 3.16 µM [inhibitor, partial curve, poor fit] | –
2 | CCCN(CCC)CCNC(=O)C1CCCN(S(=O)(=O)c2ccc3c(c2)oc(=O)n3C)C1 (stereo unspecified) | inactive | –
3 | COc1cccc(CNCCO)c1OCc1ccccc1 | inconclusive: 8.91 µM [inhibitor, partial curve, poor fit] | –
4 | Oc1c(-c2cc(-c3ccco3)[nH]n2)ccc2ccccc12 | inconclusive: 3.66 µM [activator, partial curve, poor fit] | –
5 | COc1ccc(C(c2nnnn2C2CCCC2)N2CCc3ccccc3C2)cc1OC (stereo unspecified) | – | inactive: -12.8%
6 | CCCc1nnc(SCC(=O)N2CCCC2)n1CC1CCCO1 (stereo unspecified) | – | inactive: 12.1%
7 | Cc1ccc(C)c(S(=O)(=O)N2CCN(C(C)C(=O)Nc3ccccc3-c3ccccc3)CC2)c1 (stereo unspecified) | inconclusive: 12.6 µM [inhibitor, partial curve, poor fit] | –
8 | COC(=O)c1ccccc1NC(=O)C1COc2ccccc2O1 (stereo unspecified) | – | inactive: -31.9%
9 | CN(C)S(=O)(=O)n1cnc2ccccc21 | – | inactive: 10.2%
10 | COc1cc(CN2CCN(CCCc3ccccc3)CC2CCO)cc(OC)c1 (stereo unspecified) | inconclusive: 35.5 µM [inhibitor, single point] | –
11 | CC(=O)Nc1ccc(NC(=O)CSc2nc3ccccc3nc2N2CCOCC2)cc1 | – | inactive: -6.13% [at 46.1 µM]
12 | COC(=O)c1ccc(OC)cc1OCC(=O)N1CCN(c2ccc(F)cc2)CC1 | inconclusive: 1.64 µM [inhibitor, partial curve, poor fit] | –
13 | Cc1cccc(N2C(=O)CSC2c2cccnc2)c1 (stereo unspecified) | – | inactive: 15%
14 | O=C(c1ccc(CN2CCc3ccccc3C2)cc1)N1CCc2ccccc2C1 | inconclusive: 6.31 µM [inhibitor, single point] | –
15 | Cc1ccc(C(=O)/C=C/C(=O)c2ccc(C)cc2)cc1 | inconclusive: 35.5 µM [inhibitor, partial curve, poor fit] | –
16 | COc1cc(CNn2c(C)n[nH]c2=S)cc(Br)c1OCc1ccc(F)cc1 | – | inactive: -21.9%
17 | O=C(CSc1nnnn1C1CCCCC1)N1c2ccccc2Sc2ccccc21 | inconclusive: 18.3 µM [inhibitor, single point] | –
18 | COc1ccc(-c2ccc(-c3noc(-c4ccco4)n3)c(OC)n2)cc1 | inconclusive: 10.3 µM [inhibitor, single point] | –
19 | O=C(Nc1ccc(F)cc1)Nc1ccc(N2CCCC2)c(S(=O)(=O)Nc2ccccc2Cl)c1 | active: 7.94 µM | –
20 | CCCCNc1nc(Oc2ccc(OCC)nn2)nc(N2CCOCC2)n1 | – | inactive: -6.54% [at 46.1 µM]
21 | O=C(COC(=O)COc1ccccc1F)Nc1cccc(S(=O)(=O)N2CCCCC2)c1 | – | inactive: -2.27%

Exported in CSV form: entries from further up.
Row,Structure (SMILES),Potency,"activity change, negative = inhibition"
2,CCCN(CCC)CCNC(=O)C1CCCN(S(=O)(=O)c2ccc3c(c2)oc(=O)n3C)C1 (stereo unspecified),inactive,–
3,COc1cccc(CNCCO)c1OCc1ccccc1,"inconclusive: 8.91 µM [inhibitor, partial curve, poor fit]",–
